Measurements as given in PubChem BioAssay AID493014 (National Center for Advancing Translational Sciences (NCATS), 2011).
The whole screen tested about 340,000 compounds, of which about 170 (0.05%) were called active. Inconclusive results, whose numbers are uncertain, are shown with a selection of clear calls. Calls follow the shape of the dose curve; as a rule, active = well fitted inhibition curve with a large enough effect in the signal ratio, with a control signal flat (not every such curve was filed as active); inconclusive = small, poorly fitted or top-dose-only effect, or effect the other way, or a change in a side signal; inactive = flat fitted curve, though single readings scatter; the % refers to the signal ratio. Potencies of inconclusive entries are doubtful fits and often do not repeat.

Experiment: qHTS Assay to Find Inhibitors of Chronic Active B-Cell Receptor Signaling;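 as to activity change, negative = inhibition: plate controls were basal doxycycline-induced cells for no effect and cells given 10 µM MG132 for full effect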
Conditions: ABC-DLBCL IkBa-CBG/CBR reporter, luminescence ratio (green luciferase fused to IkBa over red control in TMD8 lymphoma cells), 4 h
Method in brief: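 Cell line TMD8 (human ABC DLBCL), stably expressing tet-inducible CBG68-IkBa fusion and CBR; IMDM/0.5% FBS; cpd up to 46 uM; dox induction, 4 h, 37C/5% CO2; dual luminescence; green/red ratio; MG132 control.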

[1] = activity change, negative = inhibition: at 46.1 µM (top of the series) unless noted
Potency is read from the fitted curve at half-maximal effect.

Structure (SMILES): O=C(N/N=C/c1cccc(Cl)c1)C1CCCC1
- activity change, negative = inhibition [1]: inconclusive: -19.8%

Structure (SMILES): COc1ccccc1CNC(=O)C1CCC(CNC(=O)[C@@H]2Cc3ccccc3CN2)CC1 (some centres undefined)
- Potency [1]: inconclusive: 11.2 µM [falling, partial curve, poor fit]

Structure (SMILES): O=C(CCc1nc(-c2ccccc2)no1)Nc1cccnc1
- Potency [1]: inconclusive: 11.2 µM [rising, partial curve, poor fit]

Structure (SMILES): C=CCn1ccc(=NC=C(C#N)C#N)c2ccccc21
- Potency [1]: inconclusive: 2.24 µM [falling, partial curve]

Structure (SMILES): CC(=C/c1ccccc1)/C=N/NC(=O)c1cnccn1
- activity change, negative = inhibition [1]: inactive

Structure (SMILES): COc1cc2c(=O)n(CCC(=O)NCC3CCCO3)c(=O)n(CC(=O)c3ccc(Cl)cc3)c2cc1OC (centres undefined)
- activity change, negative = inhibition [1]: inactive

Structure (SMILES): O=C(CSc1nc2ccccc2c(=O)[nH]1)Nc1ccc(S(=O)(=O)N2CCCC2)cc1
- activity change, negative = inhibition [1]: inconclusive: -10.5%

Structure (SMILES): COc1ccc(/C=C/C(=O)NC2CCCCC2C)cc1 (centres undefined)
- Potency [1]: inconclusive: 11.2 µM [falling, partial curve]

Structure (SMILES): Oc1ccc2ccccc2c1/C=N/Nc1nnc(-c2ncc[nH]2)c2ccccc12
- Potency [1]: inconclusive: 2.31 µM [falling, partial curve, poor fit]

Structure (SMILES): O=C(CSc1ccc(-c2ccncc2)nn1)c1ccccc1
- activity change, negative = inhibition [1]: inconclusive: -18.6%

Structure (SMILES): COC(=O)c1ccc(C23CC4(C2)[C@H](CN(Cc2cccnc2)[C@@H]4c2ccccc2)C3c2ccc(C(F)(F)F)cc2)cc1 (some centres undefined)
- activity change, negative = inhibition [1]: inactive

Structure (SMILES): C=CCn1cnc2c(sc3nc(C)cc(C)c32)c1=O
- activity change, negative = inhibition [1]: inconclusive: 2.84%

Structure (SMILES): COc1ccccc1OCC(O)CN1CCN(C(=O)c2ccccc2)CC1 (centres undefined)
- activity change, negative = inhibition [1]: inactive

Structure (SMILES): Cc1ccn2c(-c3n[nH]c(=S)n3Cc3ccccc3)c(C)nc2c1
- activity change, negative = inhibition [1]: inactive

Structure (SMILES): CCc1ccccc1NC(=O)c1ccc(NCCc2ccccc2)c([N+](=O)[O-])c1
- Potency [1]: inconclusive: 4.61 µM [falling, full curve, poor fit]

Structure (SMILES): Cc1cc(C)nc(SCc2nnc(SCC(=O)Nc3c(C)cccc3C)o2)n1
- activity change, negative = inhibition [1]: inactive

Structure (SMILES): Cc1ccc2c(c1)COc1c3ccc(C(=O)N4CCOCC4)cc3nn1-2
- activity change, negative = inhibition [1]: inactive

Structure (SMILES): O=c1[nH][nH]c(=S)n1C1CCCCC1
- activity change, negative = inhibition [1]: inactive

Structure (SMILES): CCCC[n+]1ccn(-c2nc3ccccc3nc2[N-]S(=O)(=O)c2cccs2)c1
- activity change, negative = inhibition [1]: inconclusive: 8.36%

Structure (SMILES): CSCC(=O)N1CCCC(CO)(Cc2ccccc2C)C1 (centres undefined)
- Potency [1]: inconclusive: 3.98 µM [rising, partial curve]

Structure (SMILES): Cc1ccccc1-n1c(SCC(N)=O)nc2sc(-c3ccccc3)cc2c1=O
- activity change, negative = inhibition [1]: inconclusive: -9.95%

Structure (SMILES): Cc1ccc2nc(-c3ccccc3N)[nH]c2c1
- activity change, negative = inhibition [1]: inconclusive: -14.6%

Structure (SMILES): O=c1oc2c(-c3cccc(F)c3)cc(O)cc2s1
- activity change, negative = inhibition [1]: inactive

Structure (SMILES): CCc1ccc(C(=O)Nn2cnc3ccccc3c2=O)cc1
- activity change, negative = inhibition [1]: inconclusive: -6.99%

Structure (SMILES): Cc1ccc(C)c(S(=O)(=O)N2CCN(c3ncccn3)CC2)c1
- activity change, negative = inhibition [1]: inactive

Structure (SMILES): N#Cc1c(NC(=O)Cn2c(=O)oc3ccccc32)oc(-c2ccccc2)c1-c1ccccc1
- activity change, negative = inhibition [1]: inconclusive: 13.5%

Structure (SMILES): COc1cc(CN2C(=S)NC(C)(C)CC2(C)O)cc(OC)c1 (centres undefined)
- activity change, negative = inhibition [1]: inactive

Structure (SMILES): O=c1oc2ccccc2cc1-c1cn2cccnc2n1
- Potency [1]: inconclusive: 11.6 µM [falling, partial curve]

Structure (SMILES): Fc1ccc(-c2ccc(/C=N/n3cnnc3)o2)cc1
- activity change, negative = inhibition [1]: inconclusive: 4.82%

Structure (SMILES): CCN(CCCNC(=O)c1ccc(Sc2ccc(F)cc2)c(NC(C)=O)c1)c1ccccc1
- activity change, negative = inhibition [1]: inconclusive: -43.7%

Structure (SMILES): Cc1c(F)cccc1NC(=O)CCCCCC1NC(=O)NC1C (centres undefined)
- Potency [1]: inconclusive: 5.62 µM [falling, partial curve, poor fit]

Structure (SMILES): Cc1nnsc1-c1nnc(SCC(=O)c2ccc(C#N)cc2)n1C1CC1
- Potency [1]: inconclusive: 22.4 µM [falling, partial curve]

Structure (SMILES): CC(=O)Nc1ccc(C(=O)CSc2nnc3scc(-c4ccccc4)n23)cc1
- activity change, negative = inhibition [1]: inconclusive: 1.14%

Structure (SMILES): CCC(CO)Oc1cc(NC(=O)c2ccc(Cl)cc2)c2ncn(C(C)C)c2c1 (centres undefined)
- activity change, negative = inhibition [1]: inconclusive: -1.2%

Structure (SMILES): Cc1ccc(CSC2=Nc3ccccc3C3=NC(CCC(=O)NCc4cccs4)C(=O)N23)cc1 (centres undefined)
- Potency [1]: inconclusive: 6.31 µM [falling, single point]

Structure (SMILES): COc1ccc(C(=O)Nc2ccc(O)cc2C(=O)O)cc1
- Potency [1]: inconclusive: 35.5 µM [rising, single point]

Structure (SMILES): O=C(COC(=O)c1cccc(Cl)c1)Nc1cccc(S(=O)(=O)NC2=NCCC2)c1
- activity change, negative = inhibition [1]: inactive

Structure (SMILES): O=C(Cc1ccccc1)N1CCc2[nH]nc(-c3ccccc3)c2C1
- activity change, negative = inhibition [1]: inconclusive: 7.17%

Structure (SMILES): CCN(CC)C(=O)CSc1nc2cc3c(cc2c(=O)n1CCCCCC(=O)NCc1ccc(OC)cc1)OCO3
- activity change, negative = inhibition [1]: inconclusive: 1.09%
- activity change, negative = inhibition (at 46.1 µM (top of the series)): inactive: 0.445%

Structure (SMILES): Cc1cnc(NC(=O)C2CC(=O)N(c3ccc4c(c3)OCCO4)C2)s1 (centres undefined)
- activity change, negative = inhibition [1]: inactive

Structure (SMILES): O=C(NCc1ccc2c(c1)OCO2)c1ccc2c(c1)N(Cc1cccc(Cl)c1)C(=O)c1ccccc1S2=O (centres undefined)
- activity change, negative = inhibition [1]: inactive

Structure (SMILES): N#CCCn1cc(/C=C2\NC(=S)N(c3ccccc3)C2=O)c(-c2ccc(F)cc2)n1
- activity change, negative = inhibition [1]: inconclusive: -0.231%

Structure (SMILES): COc1ccc(CN(C)C(=O)CNC(=O)c2ccc3ccccc3c2)c(OC)c1
- Potency [1]: inconclusive: 31.6 µM [falling, single point]

Structure (SMILES): COc1ccc(-c2c(C#N)c(N)nc3c2CCc2ccccc2-3)cc1OC
- activity change, negative = inhibition [1]: inconclusive: 12.8%

Structure (SMILES): Cc1csc(SC(C)c2nc3scc(-c4ccccc4)c3c(=O)[nH]2)n1 (centres undefined)
- activity change, negative = inhibition [1]: inconclusive: 9.34%

Structure (SMILES): O=C(Cc1ccccc1)NC1(Cc2ccc(O)cc2)CCCCC1
- activity change, negative = inhibition [1]: inactive

Structure (SMILES): O=C(NCc1ccccn1)C1CC(c2ccccc2O)=NO1 (centres undefined)
- Potency [1]: inconclusive: 17.8 µM [falling, partial curve, poor fit]

Structure (SMILES): O=C(CN1C(=O)S/C(=C\c2ccccc2F)C1=O)NC1C=CS(=O)(=O)C1 (centres undefined)
- Potency [1]: inconclusive: 8.91 µM [falling, partial curve]

Structure (SMILES): CCCc1cc(=O)[nH]c(SCC(=O)N2CCCCCC2)n1
- activity change, negative = inhibition [1]: inactive

Structure (SMILES): O=C(CC(c1ccco1)S(=O)(=O)c1ccccc1)c1ccc(F)cc1 (centres undefined)
- Potency [1]: inconclusive: 29.1 µM [falling, partial curve, poor fit]

Structure (SMILES): COc1cc2c(cc1OC)C(c1ccc(Br)cc1)NC(=O)C2 (centres undefined)
- activity change, negative = inhibition [1]: inconclusive: -19.1%

Structure (SMILES): COc1ccccc1NC(=O)C1=C(C)Nc2nnnn2C1c1cccc(C)c1 (centres undefined)
- Potency [1]: inconclusive: 35.5 µM [falling, single point]

Structure (SMILES): CN(C)S(=O)(=O)c1cccn1-c1ncc(C(F)(F)F)cc1Cl
- activity change, negative = inhibition [1]: inconclusive: 13.5%

Structure (SMILES): O=C(CN1CCCC1)N/N=C/c1c(O)ccc2ccccc12
- activity change, negative = inhibition [1]: inactive

Structure (SMILES): COc1ccccc1NS(=O)(=O)c1ccc2c(c1)n(C)c(=O)n2C
- Potency [1]: inconclusive: 1.03 µM [rising, partial curve, poor fit]

Structure (SMILES): C=CCc1ccc(OC(=O)NC2CCCCC2)c(OC)c1
- activity change, negative = inhibition [1]: inconclusive: 5.47%

Structure (SMILES): COc1ccc(C(=O)N2CCN(CCNC(=O)C(=O)Nc3ccc(F)cc3)CC2)cc1OC
- Potency [1]: inconclusive: 35.5 µM [rising, partial curve]

Structure (SMILES): CC(C)(C)C(=O)O/N=C1/C(=O)N(c2ccccc2)c2ccccc21
- Potency [1]: inconclusive: 14.1 µM [falling, partial curve, poor fit]

Structure (SMILES): O=C1/C(=C\c2ccncc2)CCc2ccccc21
- Potency [1]: inconclusive: 29.1 µM [falling, single point]

Structure (SMILES): CC1Cc2nc(SCC(=O)Nc3nccs3)n(Cc3ccccc3)c(=O)c2S1 (centres undefined)
- activity change, negative = inhibition [1]: inactive

Structure (SMILES): N=C1C=CC=C2C1=NC1(CCCCC1)N2O
- activity change, negative = inhibition [1]: inconclusive: 13.9%

Structure (SMILES): COc1ccccc1CNC(=O)COC(=O)C1CCN(S(=O)(=O)c2ccccc2)CC1
- activity change, negative = inhibition [1]: inconclusive: 17.7%

Structure (SMILES): CC(C)(C)N/N=C/c1c(O)n(-c2ccc(Cl)cn2)c(=O)c2ccccc12
- Potency [1]: inconclusive: 23.1 µM [falling, single point]

Structure (SMILES): CC[n+]1c(/C=C/N(C)c2ccccc2)oc2ccccc21
- activity change, negative = inhibition [1]: inconclusive: 1.79%

Structure (SMILES): Cc1cc(C)n(Cc2ccc(NC(=O)c3ccc(COc4ccccc4Br)cc3)cc2)n1
- activity change, negative = inhibition [1]: inconclusive: -10.4%

Structure (SMILES): CCOC(=O)c1nc2nc(-c3cccs3)cc(C(F)(F)F)n2n1
- activity change, negative = inhibition [1]: inconclusive: 3.37%

Structure (SMILES): Cc1nc(Nc2ccc(S(N)(=O)=O)cc2)sc1-c1ccccc1
- activity change, negative = inhibition [1]: inconclusive: -2.56%

Structure (SMILES): COc1ccc(C)cc1S(=O)(=O)N(C)CC(=O)Nc1ccc2c(c1)OCO2
- Potency [1]: inconclusive: 18.4 µM [falling, partial curve, poor fit]

Structure (SMILES): CCC(=O)Nc1ccc(C(=O)Nc2cc(C)on2)cc1
- Potency [1]: inconclusive: 14.6 µM [rising, partial curve]

Structure (SMILES): COC(=O)COc1ccc2c(-c3cccc([N+](=O)[O-])c3)cc(=O)oc2c1
- Potency [1]: inconclusive: 35.5 µM [rising, single point]

Structure (SMILES): CCNC(=O)NC(=O)COC(=O)c1cccc(S(=O)(=O)N2CC3(C)CC2CC(C)(C)C3)c1 (centres undefined)
- activity change, negative = inhibition [1]: inactive

Structure (SMILES): Cc1ccc(-c2nnc3n2N=C(c2ccccc2)CS3)cc1
- Potency [1]: inconclusive: 4.61 µM [falling, partial curve, poor fit]

Structure (SMILES): Cc1ccc(O)c(-c2[nH]ncc2C(=O)c2ccc(Cl)cc2)c1
- activity change, negative = inhibition [1]: inconclusive: -3.73%

Structure (SMILES): O=C(Nc1cc(Cl)cc(Cl)c1)C1CCCC1
- activity change, negative = inhibition [1]: inconclusive: -2.3%

Structure (SMILES): CCOC(=O)COc1ccc(C(=O)c2ccccc2)c(O)c1
- activity change, negative = inhibition [1]: inconclusive: 4.48%

Structure (SMILES): O=Cc1c(NCc2ccccc2)c2ccccc2[nH]c1=O
- activity change, negative = inhibition [1]: inactive

Structure (SMILES): O=C(Nc1ccc([N+](=O)[O-])cc1)C1COc2ccccc2O1 (centres undefined)
- activity change, negative = inhibition [1]: inconclusive: 10.9%

Structure (SMILES): C/C(=N\NC(=O)c1cccc(Br)c1)c1ccccn1
- Potency [1]: inconclusive: 10 µM [falling, partial curve, poor fit]
